According to patent US9370184B2, “6-pyridone-2-carbamoyl-azoles and their use as herbicides” (BAYER CROPSCIENCE AG, priority 2012, dated 2016):
Some of these results come from one statement about several compounds together.

Legend:
Assay type in all cases: in vivo
[1] = test system: Amaranthus retroflexus; assay: Post-emergence herbicidal action against weed plants; settings: application rate 80 g/ha, visual assessment after about 3 weeks vs untreated controls (100% = plants have died)
[2] = test system: Viola tricolor; assay: as above; settings: application rate 80 g/ha, visual assessment after about 3 weeks vs untreated controls (100% = plants have died)
[3] = test system: Echinochloa crus galli; assay: Pre-emergence herbicidal action against weed plants; settings: application rate 320 g/ha, visual assessment after 3 weeks vs untreated controls (100% = plants have died)
[4] = test system: Echinochloa crus galli; assay: Post-emergence herbicidal action against weed plants; settings: application rate 80 g/ha, visual assessment after about 3 weeks vs untreated controls (100% = plants have died)
[5] = test system: Abutilon theophrasti; assay: Pre-emergence herbicidal action against weed plants; settings: application rate 320 g/ha, visual assessment after 3 weeks vs untreated controls (100% = plants have died)
[6] = test system: Veronica persica; assay: Post-emergence herbicidal action against weed plants; settings: application rate 80 g/ha, visual assessment after about 3 weeks vs untreated controls (100% = plants have died)
[7] = test system: Setaria viridis; assay: Pre-emergence herbicidal action against weed plants; settings: application rate 320 g/ha, visual assessment after 3 weeks vs untreated controls (100% = plants have died)
[8] = test system: Stellaria media; assay: Post-emergence herbicidal action against weed plants; settings: application rate 80 g/ha, visual assessment after about 3 weeks vs untreated controls (100% = plants have died)
[9] = test system: Matricaria inodora; assay: as above; settings: application rate 80 g/ha, visual assessment after about 3 weeks vs untreated controls (100% = plants have died)
[10] = test system: Amaranthus retroflexus; assay: Pre-emergence herbicidal action against weed plants; settings: application rate 320 g/ha, visual assessment after 3 weeks vs untreated controls (100% = plants have died)
[11] = test system: Veronica persica; assay: as above; settings: application rate 320 g/ha, visual assessment after 3 weeks vs untreated controls (100% = plants have died)

COCCn1c(C(=O)Nc2nnnn2C)ccc(C(F)(F)F)c1=O [1-19]
at least 80%: herbicidal action in percent [1] | herbicidal action in percent [2] | herbicidal activity in percent [3] | herbicidal action in percent [4] | herbicidal activity in percent [5] | herbicidal action in percent [6] | herbicidal activity in percent [7] | herbicidal action in percent [8] | herbicidal action in percent [9] | herbicidal activity in percent [10] | herbicidal activity in percent [11]

Cc1nonc1NC(=O)c1ccc(C(F)(F)F)c(=O)n1C [3-01]
at least 80%: herbicidal action in percent [1] | herbicidal action in percent [2] | herbicidal activity in percent [3] | herbicidal action in percent [4] | herbicidal activity in percent [5] | herbicidal action in percent [6] | herbicidal activity in percent [7] | herbicidal action in percent [8] | herbicidal action in percent [9] | herbicidal activity in percent [10] | herbicidal activity in percent [11]

Cn1nnnc1NC(=O)c1ccc(Cl)c(=O)n1C [1-31, 5-chloro-1-methyl-N-(1-methyltetrazol-5-yl)pyrid-6-one-2-carboxamide]
at least 80%: herbicidal action in percent [1] | herbicidal action in percent [2] | herbicidal activity in percent [3] | herbicidal action in percent [4] | herbicidal activity in percent [5] | herbicidal action in percent [6] | herbicidal activity in percent [7] | herbicidal action in percent [8] | herbicidal action in percent [9] | herbicidal activity in percent [10] | herbicidal activity in percent [11]

C=CCn1c(C(=O)Nc2nnnn2C)ccc(C(F)(F)F)c1=O [1-23]
at least 80%: herbicidal action in percent [1] | herbicidal action in percent [2] | herbicidal activity in percent [3] | herbicidal action in percent [4] | herbicidal activity in percent [5] | herbicidal action in percent [6] | herbicidal activity in percent [7] | herbicidal action in percent [8] | herbicidal action in percent [9] | herbicidal activity in percent [10] | herbicidal activity in percent [11]

CCn1nnnc1NC(=O)c1ccc(C(F)(F)F)c(=O)n1C [1-04]
at least 80%: herbicidal action in percent [1] | herbicidal action in percent [2] | herbicidal activity in percent [3] | herbicidal action in percent [4] | herbicidal activity in percent [5] | herbicidal action in percent [6] | herbicidal activity in percent [7] | herbicidal action in percent [8] | herbicidal action in percent [9] | herbicidal activity in percent [10] | herbicidal activity in percent [11]

Cn1nnnc1NC(=O)c1ccc(C(F)(F)F)c(=O)n1CC1CC1 [1-11]
at least 80%: herbicidal action in percent [1] | herbicidal action in percent [2] | herbicidal activity in percent [3] | herbicidal action in percent [4] | herbicidal activity in percent [5] | herbicidal action in percent [6] | herbicidal activity in percent [7] | herbicidal action in percent [8] | herbicidal action in percent [9] | herbicidal activity in percent [10] | herbicidal activity in percent [11]

Cn1c(C(=O)Nc2nonc2Cl)ccc(C(F)(F)F)c1=O [3-02]
at least 80%: herbicidal action in percent [1] | herbicidal action in percent [2] | herbicidal activity in percent [3] | herbicidal action in percent [4] | herbicidal activity in percent [5] | herbicidal action in percent [6] | herbicidal activity in percent [7] | herbicidal action in percent [8] | herbicidal action in percent [9] | herbicidal activity in percent [10] | herbicidal activity in percent [11]

Cn1nnnc1NC(=O)c1ccc(C(F)(F)F)c(=O)n1C [1-03]
at least 80%: herbicidal action in percent [1] | herbicidal action in percent [2] | herbicidal activity in percent [3] | herbicidal action in percent [4] | herbicidal activity in percent [5] | herbicidal action in percent [6] | herbicidal activity in percent [7] | herbicidal action in percent [8] | herbicidal action in percent [9] | herbicidal activity in percent [10] | herbicidal activity in percent [11]

C#CCn1c(C(=O)Nc2nnnn2C)ccc(C(F)(F)F)c1=O [1-24]
at least 80%: herbicidal action in percent [1] | herbicidal action in percent [2] | herbicidal activity in percent [3] | herbicidal action in percent [4] | herbicidal activity in percent [5] | herbicidal action in percent [6] | herbicidal activity in percent [7] | herbicidal action in percent [8] | herbicidal action in percent [9] | herbicidal activity in percent [10] | herbicidal activity in percent [11]
